The target of experiment [1] is ErbB4 bait (entire cytoplasmic domain of ErbB4 cloned into vector pGBKT7) (human) (UniProt Q15303). The experiment can be described thus: yeast two-hybrid screen, growth assay and β-galactosidase assay.
The target of experiment [2] is ErbB4 (full-length, expressed in mammalian cells) (human) (UniProt Q15303). As to the kind of experiment: co-immunoprecipitation from stably co-expressing CHO-K1 cells.
Experiment [3] shares this target. The experiment can be described thus: co-immunoprecipitation with α-ErbB4 antibody from HEK293 lysate after 7.2 nM NRG1.

Protein sequences, listed by entry. Tags and fused reporters are not part of them. Lines headed by an entry give the natural chain unless they say otherwise; changes in a name come on top.
UniProt Q15303: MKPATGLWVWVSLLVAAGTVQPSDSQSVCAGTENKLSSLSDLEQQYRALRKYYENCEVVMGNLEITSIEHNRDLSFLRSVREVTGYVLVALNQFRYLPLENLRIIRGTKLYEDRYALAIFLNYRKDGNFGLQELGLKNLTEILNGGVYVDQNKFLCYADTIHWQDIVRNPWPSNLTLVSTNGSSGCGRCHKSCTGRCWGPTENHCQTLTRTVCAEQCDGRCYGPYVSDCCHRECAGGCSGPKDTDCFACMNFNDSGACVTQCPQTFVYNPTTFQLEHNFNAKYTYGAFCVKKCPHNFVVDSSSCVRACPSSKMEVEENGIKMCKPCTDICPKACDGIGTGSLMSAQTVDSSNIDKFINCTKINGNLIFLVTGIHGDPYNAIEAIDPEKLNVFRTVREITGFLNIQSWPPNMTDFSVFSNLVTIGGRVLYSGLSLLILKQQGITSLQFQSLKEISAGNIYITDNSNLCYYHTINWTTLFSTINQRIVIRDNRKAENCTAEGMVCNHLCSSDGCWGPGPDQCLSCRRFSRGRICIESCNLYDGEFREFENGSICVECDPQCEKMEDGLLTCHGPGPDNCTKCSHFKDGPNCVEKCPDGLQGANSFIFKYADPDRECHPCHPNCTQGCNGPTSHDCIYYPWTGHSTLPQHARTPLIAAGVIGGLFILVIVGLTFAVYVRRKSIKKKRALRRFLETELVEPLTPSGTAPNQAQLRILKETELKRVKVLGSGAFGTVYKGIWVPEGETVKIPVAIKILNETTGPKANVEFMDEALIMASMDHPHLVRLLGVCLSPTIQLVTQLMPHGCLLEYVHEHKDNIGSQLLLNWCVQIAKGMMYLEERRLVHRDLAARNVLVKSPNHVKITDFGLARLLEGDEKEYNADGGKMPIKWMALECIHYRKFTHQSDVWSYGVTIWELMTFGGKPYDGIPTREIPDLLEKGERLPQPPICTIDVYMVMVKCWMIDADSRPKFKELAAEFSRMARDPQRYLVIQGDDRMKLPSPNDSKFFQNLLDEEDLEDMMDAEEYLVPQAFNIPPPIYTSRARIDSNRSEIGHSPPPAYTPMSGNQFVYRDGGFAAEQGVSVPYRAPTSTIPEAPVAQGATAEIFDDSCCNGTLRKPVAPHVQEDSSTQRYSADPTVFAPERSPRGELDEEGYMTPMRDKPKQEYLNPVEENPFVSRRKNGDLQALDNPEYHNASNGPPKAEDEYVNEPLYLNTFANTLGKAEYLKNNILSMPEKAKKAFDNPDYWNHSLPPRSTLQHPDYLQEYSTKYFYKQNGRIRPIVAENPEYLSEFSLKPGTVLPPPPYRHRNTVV
UniProt A0JNB0: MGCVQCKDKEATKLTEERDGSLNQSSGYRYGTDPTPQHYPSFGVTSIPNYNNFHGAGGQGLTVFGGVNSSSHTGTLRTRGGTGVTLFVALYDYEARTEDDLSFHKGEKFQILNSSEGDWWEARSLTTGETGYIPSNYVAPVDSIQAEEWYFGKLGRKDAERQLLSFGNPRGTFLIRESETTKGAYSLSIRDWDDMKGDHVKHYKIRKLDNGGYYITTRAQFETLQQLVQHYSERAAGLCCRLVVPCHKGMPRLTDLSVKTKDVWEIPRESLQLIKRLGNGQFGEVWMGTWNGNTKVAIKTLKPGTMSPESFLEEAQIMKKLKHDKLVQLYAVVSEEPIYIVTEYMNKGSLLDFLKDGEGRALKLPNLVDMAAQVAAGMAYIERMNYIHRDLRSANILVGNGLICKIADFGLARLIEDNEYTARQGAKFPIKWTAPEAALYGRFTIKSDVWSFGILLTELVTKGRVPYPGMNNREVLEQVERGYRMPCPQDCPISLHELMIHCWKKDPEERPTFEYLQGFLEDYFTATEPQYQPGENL
UniProt P06241: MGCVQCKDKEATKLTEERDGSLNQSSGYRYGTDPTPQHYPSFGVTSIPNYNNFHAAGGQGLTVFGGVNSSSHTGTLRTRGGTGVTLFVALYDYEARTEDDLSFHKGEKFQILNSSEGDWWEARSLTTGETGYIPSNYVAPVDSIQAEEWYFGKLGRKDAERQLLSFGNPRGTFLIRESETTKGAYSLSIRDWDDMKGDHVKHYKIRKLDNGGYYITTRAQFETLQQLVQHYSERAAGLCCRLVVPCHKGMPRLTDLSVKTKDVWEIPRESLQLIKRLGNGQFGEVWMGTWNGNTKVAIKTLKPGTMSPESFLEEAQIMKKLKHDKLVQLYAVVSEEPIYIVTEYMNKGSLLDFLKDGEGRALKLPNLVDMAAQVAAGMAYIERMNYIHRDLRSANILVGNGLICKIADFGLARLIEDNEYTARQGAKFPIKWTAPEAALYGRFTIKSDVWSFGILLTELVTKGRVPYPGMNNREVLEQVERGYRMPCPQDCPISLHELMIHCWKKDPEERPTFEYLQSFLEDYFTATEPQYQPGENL

No constants are given. Whether binding was seen depends on the method and setting. For part of these data: Binding seen in cells or lysates may run through a third protein. Some binding calls cover weakened binding; strength is not graded here.

“partial cDNA clone comprising the SH2 and SH3 domains of Fyn (amino acids 60-252) (from UniProt A0JNB0 60-252) (enzyme)”: the binding entry in experiment [1] is “binds”.
As to “Fyn (co-expressed in CHO-K1 cells) (from UniProt P06241 2-537) (enzyme)”, in experiment [2], the binding entry is “binds”.
On to “Fyn tagged with a C-terminal V5-epitope (from UniProt P06241 2-537) (enzyme)”, for which the binding result in experiment [3] is given as “binds”.

(Values after US20060029546A1, “Materials and methods for identifying anti-schizophrenic agents” (deCODE Genetics, Inc., priority 2004, published 2006).)
